According to PMC5627969:
These are yes or no findings as the source states them, for the method shown. In cells and extracts the contact can be indirect. Here binding means that the protein was enriched with, or labelled near, the bait; the list need not be complete. Tags and fused reporters may be left off the sequences shown.

Sequences of proteins named here, by UniProt entry; tags and fusion partners are left off.
UniProt Q14573: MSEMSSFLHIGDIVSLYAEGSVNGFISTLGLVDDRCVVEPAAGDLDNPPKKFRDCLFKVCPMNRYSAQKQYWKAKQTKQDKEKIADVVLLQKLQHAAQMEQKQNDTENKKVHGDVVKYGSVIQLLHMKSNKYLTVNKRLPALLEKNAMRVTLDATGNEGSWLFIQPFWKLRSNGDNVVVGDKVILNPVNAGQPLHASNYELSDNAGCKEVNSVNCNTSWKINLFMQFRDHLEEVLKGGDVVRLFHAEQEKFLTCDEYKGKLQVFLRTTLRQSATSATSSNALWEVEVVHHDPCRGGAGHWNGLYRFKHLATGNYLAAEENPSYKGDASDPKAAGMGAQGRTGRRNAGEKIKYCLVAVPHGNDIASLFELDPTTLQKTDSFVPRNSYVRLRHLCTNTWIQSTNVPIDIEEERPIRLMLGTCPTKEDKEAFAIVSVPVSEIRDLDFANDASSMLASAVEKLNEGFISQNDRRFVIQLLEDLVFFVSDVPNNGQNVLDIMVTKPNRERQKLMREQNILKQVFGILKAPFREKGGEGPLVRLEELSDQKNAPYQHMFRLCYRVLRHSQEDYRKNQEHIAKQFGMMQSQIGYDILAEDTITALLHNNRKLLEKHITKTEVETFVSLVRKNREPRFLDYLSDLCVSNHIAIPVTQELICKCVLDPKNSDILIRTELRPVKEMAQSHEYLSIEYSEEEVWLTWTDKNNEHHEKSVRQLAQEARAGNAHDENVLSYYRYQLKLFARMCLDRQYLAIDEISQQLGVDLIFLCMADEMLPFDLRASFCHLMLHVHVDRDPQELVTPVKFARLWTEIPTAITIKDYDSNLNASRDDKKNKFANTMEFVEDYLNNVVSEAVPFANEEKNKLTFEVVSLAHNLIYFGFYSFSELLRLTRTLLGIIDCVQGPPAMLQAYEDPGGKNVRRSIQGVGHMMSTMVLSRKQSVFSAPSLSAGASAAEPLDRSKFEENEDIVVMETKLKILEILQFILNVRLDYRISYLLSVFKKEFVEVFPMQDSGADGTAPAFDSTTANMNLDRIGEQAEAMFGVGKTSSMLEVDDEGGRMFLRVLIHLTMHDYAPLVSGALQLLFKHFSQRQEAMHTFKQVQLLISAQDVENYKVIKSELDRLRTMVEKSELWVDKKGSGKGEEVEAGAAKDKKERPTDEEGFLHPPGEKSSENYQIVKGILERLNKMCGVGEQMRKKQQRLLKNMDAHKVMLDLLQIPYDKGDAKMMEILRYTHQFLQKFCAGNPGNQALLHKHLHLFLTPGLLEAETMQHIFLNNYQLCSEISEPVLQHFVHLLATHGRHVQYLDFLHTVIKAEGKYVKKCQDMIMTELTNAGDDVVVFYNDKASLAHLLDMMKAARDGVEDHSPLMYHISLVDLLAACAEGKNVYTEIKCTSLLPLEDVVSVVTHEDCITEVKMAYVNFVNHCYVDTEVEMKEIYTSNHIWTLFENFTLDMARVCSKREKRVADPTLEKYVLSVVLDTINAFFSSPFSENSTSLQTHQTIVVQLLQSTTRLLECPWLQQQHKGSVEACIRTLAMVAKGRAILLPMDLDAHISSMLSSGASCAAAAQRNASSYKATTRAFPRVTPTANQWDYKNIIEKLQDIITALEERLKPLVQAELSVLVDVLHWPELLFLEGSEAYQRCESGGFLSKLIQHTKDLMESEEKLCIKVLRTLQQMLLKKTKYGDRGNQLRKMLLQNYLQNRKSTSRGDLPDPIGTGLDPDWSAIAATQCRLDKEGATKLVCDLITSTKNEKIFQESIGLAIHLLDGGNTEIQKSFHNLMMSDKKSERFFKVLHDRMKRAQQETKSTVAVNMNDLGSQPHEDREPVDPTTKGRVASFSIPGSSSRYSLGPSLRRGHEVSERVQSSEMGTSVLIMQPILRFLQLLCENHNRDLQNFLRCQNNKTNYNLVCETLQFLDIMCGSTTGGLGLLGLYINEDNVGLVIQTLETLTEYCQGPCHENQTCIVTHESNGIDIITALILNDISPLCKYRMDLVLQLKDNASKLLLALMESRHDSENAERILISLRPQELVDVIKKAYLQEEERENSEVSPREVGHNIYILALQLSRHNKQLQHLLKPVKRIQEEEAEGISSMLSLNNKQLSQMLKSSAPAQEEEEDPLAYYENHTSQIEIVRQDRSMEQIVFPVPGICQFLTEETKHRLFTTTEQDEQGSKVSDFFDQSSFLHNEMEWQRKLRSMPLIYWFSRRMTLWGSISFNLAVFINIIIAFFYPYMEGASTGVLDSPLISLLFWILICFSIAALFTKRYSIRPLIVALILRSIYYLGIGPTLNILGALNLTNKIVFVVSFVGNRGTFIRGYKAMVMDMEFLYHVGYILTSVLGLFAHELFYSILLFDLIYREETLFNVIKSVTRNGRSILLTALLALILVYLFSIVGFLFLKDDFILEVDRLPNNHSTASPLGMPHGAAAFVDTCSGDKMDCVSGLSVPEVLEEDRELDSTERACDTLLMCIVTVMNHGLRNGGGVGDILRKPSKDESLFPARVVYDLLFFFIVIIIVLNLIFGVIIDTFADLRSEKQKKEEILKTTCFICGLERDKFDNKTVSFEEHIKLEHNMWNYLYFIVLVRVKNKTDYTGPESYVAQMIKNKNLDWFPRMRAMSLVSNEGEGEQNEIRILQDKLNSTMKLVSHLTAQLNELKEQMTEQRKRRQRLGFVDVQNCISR

Target: T1, Flag-HA-tagged FBXL2 (human) (UniProt Q9UKC9)
T1 sequence: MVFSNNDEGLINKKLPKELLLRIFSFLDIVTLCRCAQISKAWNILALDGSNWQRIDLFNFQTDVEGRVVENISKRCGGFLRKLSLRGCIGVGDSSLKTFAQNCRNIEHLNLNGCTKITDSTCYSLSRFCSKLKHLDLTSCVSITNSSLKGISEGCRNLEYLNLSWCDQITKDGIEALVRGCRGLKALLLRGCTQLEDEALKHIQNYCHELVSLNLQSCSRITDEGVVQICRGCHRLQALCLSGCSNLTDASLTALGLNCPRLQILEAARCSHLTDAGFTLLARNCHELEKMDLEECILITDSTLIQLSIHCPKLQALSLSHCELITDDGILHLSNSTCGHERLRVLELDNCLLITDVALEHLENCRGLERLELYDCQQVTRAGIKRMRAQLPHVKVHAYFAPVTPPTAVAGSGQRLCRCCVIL
Test: affinity purification with mass spectrometry; Flag-HA-tagged FBXL2 transiently expressed in HEK293T, MG132 (10 uM) 3 h before harvest, immunopurified, co-purifying proteins by mass spectrometry

“IP3R3 (endogenous, HEK293T) (from UniProt Q14573 1-2671) (receptor)” was tested, and the binding was “binds”.
